Measured values taken from the supplement of paper PMC10849652.
This is one part of the list.

Chains of the proteins cited; added tags and fusions are not shown. Lines headed by an entry give the natural chain unless they say otherwise; changes in a name come on top.
UniProt P52732: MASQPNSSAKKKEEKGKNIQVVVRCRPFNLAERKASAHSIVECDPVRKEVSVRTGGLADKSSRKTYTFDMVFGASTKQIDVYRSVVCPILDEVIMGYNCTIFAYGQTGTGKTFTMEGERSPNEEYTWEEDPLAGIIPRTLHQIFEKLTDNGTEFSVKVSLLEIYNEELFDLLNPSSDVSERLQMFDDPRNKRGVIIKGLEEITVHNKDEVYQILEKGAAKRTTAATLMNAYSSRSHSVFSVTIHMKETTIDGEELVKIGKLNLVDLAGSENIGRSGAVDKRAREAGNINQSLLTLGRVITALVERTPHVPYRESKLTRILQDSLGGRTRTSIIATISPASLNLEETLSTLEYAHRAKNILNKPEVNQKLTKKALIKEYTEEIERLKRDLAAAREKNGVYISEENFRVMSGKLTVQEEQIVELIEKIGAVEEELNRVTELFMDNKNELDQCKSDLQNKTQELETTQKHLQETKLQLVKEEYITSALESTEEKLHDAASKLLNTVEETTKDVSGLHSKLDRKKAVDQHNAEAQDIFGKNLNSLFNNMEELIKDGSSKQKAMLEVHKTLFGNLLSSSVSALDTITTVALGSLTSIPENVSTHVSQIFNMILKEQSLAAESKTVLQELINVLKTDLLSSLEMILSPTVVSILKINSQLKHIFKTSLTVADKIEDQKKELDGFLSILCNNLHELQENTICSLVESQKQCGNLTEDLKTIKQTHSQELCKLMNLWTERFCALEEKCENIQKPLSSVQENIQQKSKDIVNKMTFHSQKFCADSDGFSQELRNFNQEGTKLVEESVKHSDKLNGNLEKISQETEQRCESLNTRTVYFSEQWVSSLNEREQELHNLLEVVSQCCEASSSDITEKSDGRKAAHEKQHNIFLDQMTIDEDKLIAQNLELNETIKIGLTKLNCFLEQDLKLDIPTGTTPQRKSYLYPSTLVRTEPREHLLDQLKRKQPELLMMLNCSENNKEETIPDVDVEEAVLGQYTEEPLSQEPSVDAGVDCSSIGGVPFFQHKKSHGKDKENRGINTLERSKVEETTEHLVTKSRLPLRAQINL
UniProt Q9BQD3: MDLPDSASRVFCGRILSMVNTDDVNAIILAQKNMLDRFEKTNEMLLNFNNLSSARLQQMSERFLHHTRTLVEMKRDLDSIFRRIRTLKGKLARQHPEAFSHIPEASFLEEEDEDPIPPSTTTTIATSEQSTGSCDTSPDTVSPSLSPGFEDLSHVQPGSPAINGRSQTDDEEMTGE
UniProt Q8N6L1: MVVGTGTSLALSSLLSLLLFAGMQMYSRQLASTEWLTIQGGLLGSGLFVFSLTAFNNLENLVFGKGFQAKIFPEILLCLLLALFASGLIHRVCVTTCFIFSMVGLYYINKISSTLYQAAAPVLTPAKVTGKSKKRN
UniProt Q96A73: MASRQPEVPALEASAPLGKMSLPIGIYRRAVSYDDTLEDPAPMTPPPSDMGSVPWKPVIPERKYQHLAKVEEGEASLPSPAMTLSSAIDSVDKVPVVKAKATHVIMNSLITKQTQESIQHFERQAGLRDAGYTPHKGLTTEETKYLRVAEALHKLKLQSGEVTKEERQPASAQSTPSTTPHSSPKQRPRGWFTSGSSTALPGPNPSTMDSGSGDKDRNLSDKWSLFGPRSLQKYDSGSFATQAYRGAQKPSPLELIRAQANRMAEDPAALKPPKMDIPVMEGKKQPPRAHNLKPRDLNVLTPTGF
UniProt Q15058: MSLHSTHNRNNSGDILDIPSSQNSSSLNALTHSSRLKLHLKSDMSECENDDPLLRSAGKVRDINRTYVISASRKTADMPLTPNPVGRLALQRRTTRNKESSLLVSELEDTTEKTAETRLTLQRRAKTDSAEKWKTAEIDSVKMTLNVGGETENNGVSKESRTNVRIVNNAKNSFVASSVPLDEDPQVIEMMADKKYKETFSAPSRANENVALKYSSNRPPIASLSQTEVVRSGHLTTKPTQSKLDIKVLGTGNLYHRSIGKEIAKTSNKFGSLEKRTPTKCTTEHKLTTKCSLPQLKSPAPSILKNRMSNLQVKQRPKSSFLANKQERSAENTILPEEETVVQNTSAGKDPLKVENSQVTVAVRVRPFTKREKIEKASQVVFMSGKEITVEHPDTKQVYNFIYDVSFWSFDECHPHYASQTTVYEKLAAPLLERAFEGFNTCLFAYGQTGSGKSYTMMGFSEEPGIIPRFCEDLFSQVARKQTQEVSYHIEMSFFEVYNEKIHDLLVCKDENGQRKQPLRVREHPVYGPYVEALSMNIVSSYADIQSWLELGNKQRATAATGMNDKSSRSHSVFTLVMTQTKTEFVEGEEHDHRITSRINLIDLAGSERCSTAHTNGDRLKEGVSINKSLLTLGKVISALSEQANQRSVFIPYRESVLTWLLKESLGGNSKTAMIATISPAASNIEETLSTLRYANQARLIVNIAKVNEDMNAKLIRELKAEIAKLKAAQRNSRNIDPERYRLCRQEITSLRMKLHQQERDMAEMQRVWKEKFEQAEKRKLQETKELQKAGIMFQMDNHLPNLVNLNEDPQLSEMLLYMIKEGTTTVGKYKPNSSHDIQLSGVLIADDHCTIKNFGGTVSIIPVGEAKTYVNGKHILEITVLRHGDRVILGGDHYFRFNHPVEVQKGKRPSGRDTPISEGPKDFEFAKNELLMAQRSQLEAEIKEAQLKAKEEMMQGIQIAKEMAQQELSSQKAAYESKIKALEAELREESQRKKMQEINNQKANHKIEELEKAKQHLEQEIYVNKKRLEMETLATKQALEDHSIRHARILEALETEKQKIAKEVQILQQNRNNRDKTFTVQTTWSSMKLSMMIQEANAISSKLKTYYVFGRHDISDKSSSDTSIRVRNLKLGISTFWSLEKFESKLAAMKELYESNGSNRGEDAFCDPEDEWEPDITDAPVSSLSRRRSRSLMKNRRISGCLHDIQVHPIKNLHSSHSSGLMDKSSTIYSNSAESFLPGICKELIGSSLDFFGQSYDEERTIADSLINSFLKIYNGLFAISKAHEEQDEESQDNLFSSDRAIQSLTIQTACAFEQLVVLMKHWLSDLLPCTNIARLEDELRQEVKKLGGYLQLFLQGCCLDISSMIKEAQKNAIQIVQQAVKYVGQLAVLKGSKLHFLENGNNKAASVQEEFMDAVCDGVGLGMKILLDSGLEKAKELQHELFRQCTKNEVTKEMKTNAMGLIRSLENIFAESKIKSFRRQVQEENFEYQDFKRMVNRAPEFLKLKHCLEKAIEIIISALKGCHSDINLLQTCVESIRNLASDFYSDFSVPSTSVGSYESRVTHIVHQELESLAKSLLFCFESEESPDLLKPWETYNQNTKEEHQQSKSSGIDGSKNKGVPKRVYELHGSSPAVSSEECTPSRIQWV
UniProt Q16719: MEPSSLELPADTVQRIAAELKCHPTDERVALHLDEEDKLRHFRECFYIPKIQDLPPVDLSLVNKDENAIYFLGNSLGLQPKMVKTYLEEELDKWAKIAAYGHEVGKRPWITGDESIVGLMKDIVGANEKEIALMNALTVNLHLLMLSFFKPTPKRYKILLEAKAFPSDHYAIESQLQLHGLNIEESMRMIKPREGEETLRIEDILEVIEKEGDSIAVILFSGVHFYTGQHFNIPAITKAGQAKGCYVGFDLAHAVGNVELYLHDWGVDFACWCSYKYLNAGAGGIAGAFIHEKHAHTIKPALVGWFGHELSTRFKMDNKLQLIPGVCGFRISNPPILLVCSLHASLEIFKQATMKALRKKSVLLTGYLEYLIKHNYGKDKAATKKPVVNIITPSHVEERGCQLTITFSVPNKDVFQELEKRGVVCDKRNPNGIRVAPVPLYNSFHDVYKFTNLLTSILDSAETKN
UniProt P11279: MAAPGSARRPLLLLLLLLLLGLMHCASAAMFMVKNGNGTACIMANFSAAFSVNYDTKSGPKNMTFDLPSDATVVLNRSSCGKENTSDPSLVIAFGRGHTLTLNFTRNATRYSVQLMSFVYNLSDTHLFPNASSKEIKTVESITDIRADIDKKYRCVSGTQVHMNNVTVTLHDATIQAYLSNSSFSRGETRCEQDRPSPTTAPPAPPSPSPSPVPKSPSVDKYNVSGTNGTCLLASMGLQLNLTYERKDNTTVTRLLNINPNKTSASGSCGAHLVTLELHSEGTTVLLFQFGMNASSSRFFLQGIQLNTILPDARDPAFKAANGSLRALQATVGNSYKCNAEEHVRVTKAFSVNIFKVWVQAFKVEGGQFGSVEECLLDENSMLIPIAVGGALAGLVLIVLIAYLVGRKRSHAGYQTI
UniProt Q06136: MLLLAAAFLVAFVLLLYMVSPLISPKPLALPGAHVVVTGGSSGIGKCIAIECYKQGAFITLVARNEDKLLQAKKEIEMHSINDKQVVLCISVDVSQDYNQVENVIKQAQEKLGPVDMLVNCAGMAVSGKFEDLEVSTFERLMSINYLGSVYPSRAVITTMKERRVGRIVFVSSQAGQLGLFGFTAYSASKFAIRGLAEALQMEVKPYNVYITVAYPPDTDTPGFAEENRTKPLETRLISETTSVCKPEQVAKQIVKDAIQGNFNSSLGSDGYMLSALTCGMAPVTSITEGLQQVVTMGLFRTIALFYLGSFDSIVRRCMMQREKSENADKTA
UniProt Q8IYS2: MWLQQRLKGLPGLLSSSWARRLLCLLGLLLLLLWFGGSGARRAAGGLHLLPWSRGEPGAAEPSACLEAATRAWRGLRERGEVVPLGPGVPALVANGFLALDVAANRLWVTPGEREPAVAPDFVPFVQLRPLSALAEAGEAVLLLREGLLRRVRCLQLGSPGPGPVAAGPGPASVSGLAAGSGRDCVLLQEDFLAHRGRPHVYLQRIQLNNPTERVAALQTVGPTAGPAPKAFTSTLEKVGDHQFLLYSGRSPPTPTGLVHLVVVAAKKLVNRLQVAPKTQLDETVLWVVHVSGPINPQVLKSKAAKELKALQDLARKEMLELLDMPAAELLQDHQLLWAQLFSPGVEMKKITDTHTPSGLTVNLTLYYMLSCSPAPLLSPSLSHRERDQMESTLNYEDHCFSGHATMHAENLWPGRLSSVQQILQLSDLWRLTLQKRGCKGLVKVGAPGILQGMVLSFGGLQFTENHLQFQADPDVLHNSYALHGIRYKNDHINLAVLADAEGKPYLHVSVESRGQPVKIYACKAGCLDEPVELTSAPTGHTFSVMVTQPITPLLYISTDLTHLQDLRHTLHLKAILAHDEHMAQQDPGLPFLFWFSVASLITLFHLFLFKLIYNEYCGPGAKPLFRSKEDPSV
UniProt O60662: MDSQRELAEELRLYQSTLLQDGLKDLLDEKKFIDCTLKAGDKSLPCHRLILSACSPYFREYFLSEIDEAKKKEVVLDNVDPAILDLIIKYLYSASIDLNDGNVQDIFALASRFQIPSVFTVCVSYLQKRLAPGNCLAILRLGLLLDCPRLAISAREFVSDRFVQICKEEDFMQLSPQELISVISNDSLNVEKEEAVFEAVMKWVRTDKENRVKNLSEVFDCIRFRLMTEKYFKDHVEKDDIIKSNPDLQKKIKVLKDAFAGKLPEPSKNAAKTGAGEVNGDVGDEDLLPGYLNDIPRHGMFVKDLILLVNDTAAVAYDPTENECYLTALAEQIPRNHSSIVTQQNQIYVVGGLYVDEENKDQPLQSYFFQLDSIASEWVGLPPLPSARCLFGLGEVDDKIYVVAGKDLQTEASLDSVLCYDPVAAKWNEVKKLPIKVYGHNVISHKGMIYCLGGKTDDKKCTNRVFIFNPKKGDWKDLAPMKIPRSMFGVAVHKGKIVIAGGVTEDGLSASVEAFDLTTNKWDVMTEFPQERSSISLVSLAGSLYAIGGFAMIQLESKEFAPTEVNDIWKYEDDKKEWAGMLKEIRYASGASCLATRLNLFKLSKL
UniProt Q14807: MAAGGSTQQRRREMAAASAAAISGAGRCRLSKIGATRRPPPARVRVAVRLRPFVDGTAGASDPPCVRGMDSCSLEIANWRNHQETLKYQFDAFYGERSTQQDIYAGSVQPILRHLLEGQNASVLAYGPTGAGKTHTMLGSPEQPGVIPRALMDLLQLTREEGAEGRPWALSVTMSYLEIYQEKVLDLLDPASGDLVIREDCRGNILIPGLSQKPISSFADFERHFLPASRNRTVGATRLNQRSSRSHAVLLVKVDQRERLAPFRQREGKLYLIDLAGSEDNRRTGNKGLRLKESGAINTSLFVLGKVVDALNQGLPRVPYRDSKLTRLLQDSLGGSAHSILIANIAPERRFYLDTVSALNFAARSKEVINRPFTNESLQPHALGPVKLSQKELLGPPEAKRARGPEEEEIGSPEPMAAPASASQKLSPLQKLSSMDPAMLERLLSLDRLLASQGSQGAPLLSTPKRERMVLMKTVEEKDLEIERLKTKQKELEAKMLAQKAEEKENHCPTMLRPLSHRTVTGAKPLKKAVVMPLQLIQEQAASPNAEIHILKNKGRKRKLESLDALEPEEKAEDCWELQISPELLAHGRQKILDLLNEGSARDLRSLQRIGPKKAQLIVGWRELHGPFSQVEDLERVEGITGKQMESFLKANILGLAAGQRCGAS

compound: NC1(c2ccc(-c3nc4ccn5c(=O)[nH]nc5c4cc3-c3ccccc3)cc2)CCC1; assay: log2 fold change, soluble protein after heating vs DMSO (PISA); higher = thermal stabilisation; K562 lysate, 10 uM; active = over 0.2 and 3.5 SD of the protein, either way, in both replicates (recomputed)
How it was run: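 Soluble protein was defined as the supernatant remaining after 21,000xg for 90 min, following pooling of heated aliquots and adjustment to 0.5% NP-40 at 4°C. Before that, crude K562 extract at 1 mg/mL protein in PBS pH 7.4 with 1 mM MgCl2 was treated with 10 μM compound for 30 min and heated for 3 min across 48°C-58°C. Quantification used TMTpro 16plex LC-MS/MS with channel sums equalised, and values are log-two fold changes in thermal stability relative to solvent controls from duplicates.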

log2 fold change, inactive:
KIF11 (UniProt P52732) 0
LARP1 (UniProt Q6PKG0) 0.007
KXD1 (UniProt Q9BQD3) 0.019
KLHL7 (UniProt Q8IXQ5) 0.075
KLHL26 (UniProt Q53HC5) 0.045
KIF5A (UniProt Q12840) -0.003
KRTCAP2 isoform 2 (UniProt Q8N6L1) 0.044
LACTB2 (UniProt Q53H82) -0.001
KEL (UniProt P23276) 0.01
KIAA1191 (UniProt Q96A73) 0.003
KPNB1 (UniProt Q14974) -0.004
L1RE1 (UniProt Q9UN81) -0.045
KIF3C (UniProt O14782) 0.145
KRAS (UniProt P01116) -0.032
KIF14 (UniProt Q15058) -0.024
LAMTOR4 (UniProt Q0VGL1) -0.025
KIF21A isoform 5 (UniProt Q7Z4S6) -0.028
KIF4B (UniProt Q2VIQ3) -0.078
KLHL42 (UniProt Q9P2K6) 0.039
KYNU (UniProt Q16719) -0.003
LARP1B, A0A3B3ISF0 0.018
KNSTRN (UniProt Q9Y448) -0.01
KYAT3 (UniProt Q6YP21) -0.008
LAMP1 (UniProt P11279) -0.017
KIAA0513 (UniProt O60268) -0.001
KDSR (UniProt Q06136) -0.024
KIAA2013 (UniProt Q8IYS2) 0.039
KLHL41 (UniProt O60662) -0.182
KIF13A isoform 4 (UniProt Q9H1H9) -0.116
KTI12 (UniProt Q96EK9) 0.042
LANCL1 (UniProt O43813) 0.002
KIF22 (UniProt Q14807) -0.171

Random excerpt: two entries already listed
log2 fold change, inactive:
KIF4B (UniProt Q2VIQ3) -0.078
LARP1B, A0A3B3ISF0 0.018
